Values from PubChem BioAssay AID493246 (Drosophila RNAi Screening Center, 2011).
The screen tested about 21,000 reagents; below is a random part of those with a known target gene and a result. In the full data, 429 (2%) are marked active. 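Values are raw and not normalised between plates; calls rest on per-plate z-scores that were not deposited.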 The numbers tell different reagents against one gene apart. Reagent sequences are not shown. Not stated in the record: the amount of reagent, the time to read-out.

Screen: 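Genome-wide search for dsRNAs that reduce cell number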 (primary screen)
Cells: Drosophila Kc and S2R+ cells
Knock-down reagent: long dsRNA against Drosophila genes
Read-out: 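Raw, unnormalised count of remaining cells in each well; per-plate z-scores of cell number underlie the calls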
Reading the numbers: Kc cell number and S2R+ cell number: higher = more cells remaining
Hit rule: 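Active when the per-plate z-score of cell number is 3 or more in the direction of fewer cells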

gene	reagent	Kc cell number, rep 1	Kc cell number, rep 2	S2R+ cell number, rep 1	S2R+ cell number, rep 2	Call
TH1	1	6.47e5		8.90e5		inactive
croc	1	1.41e6	1.42e6	1.29e6	1.37e6	inactive
CG7786	1	1.74e6	1.77e6	1.18e6	1.34e6	inactive
CG10737	1	1.37e6	1.38e6	1.07e6	1.10e6	inactive
bb8	1	1.41e6	1.57e6	1.04e6	1.14e6	inactive
CG32720	1	1.30e6	1.55e6	1.05e6	1.16e6	inactive
CG18131	1	1.69e6	1.80e6	8.51e5	9.94e5	inactive
car	1	1.63e6	1.66e6	1.06e6	1.24e6	inactive
Rnf146	1	1.70e6	1.74e6	1.35e6	1.48e6	inactive
CG13445	1	1.48e6	1.51e6	1.12e6	1.26e6	inactive
CG11370	1	1.46e6	1.47e6	1.15e6	1.26e6	inactive
ord	1	1.60e6	1.65e6	1.29e6	1.34e6	inactive
CG33298	1	1.47e6	1.52e6	1.20e6	1.38e6	inactive
CG33298	2	1.45e6	1.56e6	1.03e6	1.05e6	inactive
CG7294	1	1.57e6	1.56e6	1.11e6	1.26e6	inactive
CG18094	1	1.55e6	1.67e6	1.34e6	4.06e5	inactive
CG9040	1	1.59e6	1.46e6	1.14e6	1.30e6	inactive
Mec2	1	1.69e6	1.71e6	1.11e6	1.23e6	inactive
side-V	1	1.35e6	1.23e6	9.12e5	1.05e6	inactive
CG32191	1	1.40e6	1.42e6	1.19e6	1.25e6	inactive
CG14118	1	1.29e6	1.39e6	1.17e6	1.29e6	inactive
CG3598	1	1.50e6	1.52e6	1.05e6	1.14e6	inactive
Pgi	1	1.31e6	1.35e6	1.14e6	1.25e6	inactive
cGlr1	1	1.69e6	1.68e6	1.17e6	1.28e6	inactive

Laid out differently: entries from further up.
gene | reagent | Kc cell number, rep 1 | Kc cell number, rep 2 | S2R+ cell number, rep 1 | S2R+ cell number, rep 2 | Call
car | 1 | 1.63e6 | 1.66e6 | 1.06e6 | 1.24e6 | inactive
Rnf146 | 1 | 1.70e6 | 1.74e6 | 1.35e6 | 1.48e6 | inactive
CG13445 | 1 | 1.48e6 | 1.51e6 | 1.12e6 | 1.26e6 | inactive
CG11370 | 1 | 1.46e6 | 1.47e6 | 1.15e6 | 1.26e6 | inactive
ord | 1 | 1.60e6 | 1.65e6 | 1.29e6 | 1.34e6 | inactive
CG33298 | 1 | 1.47e6 | 1.52e6 | 1.20e6 | 1.38e6 | inactive
CG33298 | 2 | 1.45e6 | 1.56e6 | 1.03e6 | 1.05e6 | inactive
CG7294 | 1 | 1.57e6 | 1.56e6 | 1.11e6 | 1.26e6 | inactive
CG18094 | 1 | 1.55e6 | 1.67e6 | 1.34e6 | 4.06e5 | inactive

The results go on.
gene	reagent	Kc cell number, rep 1	Kc cell number, rep 2	S2R+ cell number, rep 1	S2R+ cell number, rep 2	Call
ppk15	1	1.78e6	1.82e6	9.17e5	9.82e5	inactive
ppl	1	1.69e6	1.67e6	1.37e6	1.46e6	inactive
Klp10A	1	5.30e5		7.57e5		inactive
CG12134	1	1.70e6	1.65e6	1.37e6	1.44e6	inactive
PTP-ER	1	1.23e6	1.38e6	1.04e6	1.11e6	inactive
nompB	1	1.44e6	1.53e6	1.17e6	3.24e5	inactive
nompB	2	1.58e6	1.59e6	1.26e6	3.16e5	inactive
Loxl1	1	1.54e6	1.59e6	1.04e6	1.11e6	inactive
Or47b	1	1.50e6	1.49e6	1.20e6	1.33e6	inactive
Pal1	1	1.45e6	1.50e6	1.09e6	1.13e6	inactive
D2hgdh	1	5.49e5		8.30e5		inactive
CG4610	1	1.82e6	1.84e6	1.24e6	1.34e6	inactive
CG14096	1	1.35e6	1.46e6	1.21e6	1.33e6	inactive
CG32182	1	1.39e6	1.50e6	1.15e6	1.30e6	inactive
mu2	1	1.49e6	1.48e6	1.21e6	1.22e6	inactive
Gr85a	1	1.76e6	1.69e6	1.22e6	1.36e6	inactive
Wdr81	1	1.33e6	1.38e6	1.12e6	1.22e6	inactive
AstCC	1	1.55e6	1.59e6	1.18e6	1.34e6	inactive
Ser6	1	1.45e6	1.50e6	1.08e6	1.17e6	inactive
Pomp	1	7.87e5	9.05e5	2.93e5	3.30e5	active
Ars2	1	1.26e6	1.36e6	9.55e5	1.03e6	inactive
UQCR-6.4	1	1.58e6	1.65e6	1.31e6	1.45e6	inactive
Cse1	1	1.38e6	1.41e6	9.83e5	1.08e6	inactive
CG4080	1	1.35e6	1.39e6	1.35e6	1.27e6	inactive
ATPsynC	1	4.49e5		6.53e5		inactive
RpL24	1	1.06e6	1.17e6	8.14e5	8.86e5	active
Mitofilin	1	1.52e6	1.64e6	1.03e6	1.08e6	inactive
Rpn8	1	8.97e5	9.70e5	6.57e5	8.11e5	active
CG31229	1	1.29e6	1.32e6	8.66e5	9.40e5	inactive
Cf2	1	1.08e6	1.04e6	5.97e5	7.02e5	active
Polr1C	1	1.31e6	1.36e6	6.56e5	6.75e5	inactive
CG12093	1	1.37e6	1.52e6	1.29e6	1.25e6	inactive
Mps1	1	1.72e6	1.69e6	1.30e6	1.36e6	inactive
CG17124	1	1.71e6	1.68e6	1.10e6	1.27e6	inactive
Orco	1	1.67e6	1.88e6	1.20e6	1.35e6	inactive
